Source: paper PMC10873574

T1: cLUC-VvMYBA1 (Vitis vinifera (grapevine)) (UniProt Q6L9M9)
T1 sequence: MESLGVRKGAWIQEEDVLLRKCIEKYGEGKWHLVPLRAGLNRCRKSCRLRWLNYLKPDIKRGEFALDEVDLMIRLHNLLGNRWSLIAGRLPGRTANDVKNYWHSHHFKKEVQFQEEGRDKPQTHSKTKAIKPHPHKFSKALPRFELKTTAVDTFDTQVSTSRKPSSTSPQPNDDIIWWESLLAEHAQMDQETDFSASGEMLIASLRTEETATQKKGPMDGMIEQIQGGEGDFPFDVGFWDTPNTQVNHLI

T2: AD-VvMYBA1 (Vitis vinifera (grapevine)) (UniProt Q6L9M9)
T2 sequence: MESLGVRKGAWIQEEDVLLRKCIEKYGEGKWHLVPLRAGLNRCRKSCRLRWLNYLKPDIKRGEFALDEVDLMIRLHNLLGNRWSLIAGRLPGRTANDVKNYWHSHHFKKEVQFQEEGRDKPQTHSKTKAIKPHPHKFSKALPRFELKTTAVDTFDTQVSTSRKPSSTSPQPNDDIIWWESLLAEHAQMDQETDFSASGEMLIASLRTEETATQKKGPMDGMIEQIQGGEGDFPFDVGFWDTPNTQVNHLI


Key:
[1] = molecular target: T1, cLUC-VvMYBA1 (Vitis vinifera (grapevine)); test: split reporter; split-LUC in 4-week-old tobacco leaves; 35S:VvMYC1-nLUC and 35S:cLUC-VvMYBA1 co-expressed with VvSBP8, VvSBP13 fusion or fluorescent protein control; Pro35S:P19 co-infiltrated
[2] = molecular target: T2, AD-VvMYBA1 (Vitis vinifera (grapevine)); test: yeast three-hybrid; AD-VvMYBA1 with pBridge BD-VvMYC1 (ADH1 promoter) and VvSBP8/13 under the Met25 promoter in AH109; growth on SD/-Trp/-Leu/-His/-Ade plus 1 mM Met (competitor repressed) and on SD/-Trp/-Leu/-His/-Ade/-Met (competitor expressed)
[3] = molecular target: BD-VvSBP13 (Vitis vinifera (grapevine)); test: two-hybrid; BD and AD fusions co-transformed into yeast strain AH109; growth on SD/-Trp-Leu-His-Ade medium
[4] = molecular target: BD-VvSBP8 (Vitis vinifera (grapevine)); test: as above
[5] = molecular target: pBridge-VvMYC1 (Vitis vinifera (grapevine)); test: yeast three-hybrid; AD-VvMYBA1 with pBridge BD-VvMYC1 (ADH1 promoter) and VvSBP8/13 under the Met25 promoter in AH109; growth on SD/-Trp/-Leu/-His/-Ade plus 1 mM Met (competitor repressed) and on SD/-Trp/-Leu/-His/-Ade/-Met (competitor expressed)
[6] = molecular target: VvMYC1-nLUC (Vitis vinifera (grapevine)); test: split reporter; split-LUC in 4-week-old tobacco leaves; 35S:VvMYC1-nLUC and 35S:cLUC-VvMYBA1 co-expressed with VvSBP8, VvSBP13 fusion or fluorescent protein control; Pro35S:P19 co-infiltrated

Row | Molecule | binding [1] | binding [2] | further results
1 | VvSBP8-GFP (Vitis vinifera (grapevine)) | binds | – | –
2 | VvSBP13-GFP (Vitis vinifera (grapevine)) | binds | – | –
3 | VvSBP13 expressed from pBridge under the Met25 promoter (Vitis vinifera (grapevine)) | – | binds | –
4 | VvSBP8 expressed from pBridge under the Met25 promoter (Vitis vinifera (grapevine)) | – | binds | –
5 | AD-VvMYBA1 (protein, UniProt Q6L9M9 1-250) MESLGVRKGAWIQEEDVLLRKCIEKYGEGKWHLVPLRAGLNRCRKSCRLRWLNYLKPDIKRGEFALDEVDLMIRLHNLLGNRWSLIAGRLPGRTANDVKNYWHSHHFKKEVQFQEEGRDKPQTHSKTKAIKPHPHKFSKALPRFELKTTAVDTFDTQVSTSRKPSSTSPQPNDDIIWWESLLAEHAQMDQETDFSASGEMLIASLRTEETATQKKGPMDGMIEQIQGGEGDFPFDVGFWDTPNTQVNHLI | – | – | binding [3]: binds; binding [4]: binds; binding [5]: binds
6 | cLUC-VvMYBA1 (protein, UniProt Q6L9M9 1-250) MESLGVRKGAWIQEEDVLLRKCIEKYGEGKWHLVPLRAGLNRCRKSCRLRWLNYLKPDIKRGEFALDEVDLMIRLHNLLGNRWSLIAGRLPGRTANDVKNYWHSHHFKKEVQFQEEGRDKPQTHSKTKAIKPHPHKFSKALPRFELKTTAVDTFDTQVSTSRKPSSTSPQPNDDIIWWESLLAEHAQMDQETDFSASGEMLIASLRTEETATQKKGPMDGMIEQIQGGEGDFPFDVGFWDTPNTQVNHLI | – | – | binding [6]: binds

No constants are given. Whether binding was seen depends on the method and setting. A result given as binding can be weak or reduced; the word gives no strength. Where a sequence is shown, tags or fusion partners need not be part of it. For some assays here: In cells and extracts the contact can be indirect.
